# Results from one PubChem assay

From PubChem BioAssay record AID1159506 (NCATS, 2015).

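Luminescence from an EWS-FLI1 target-promoter (NR0B1) reporter, set against a CMV-promoter reporter, two days after silencing single genes in TC32 Ewing sarcoma cells. Each siRNA was applied at 20 nM. A z-score of the log NR0B1-over-CMV signal, less the median of siRNAs with the same seed; more negative means a stronger specific loss of the NR0B1 reporter.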

This is part of the screen; most of the strongest results are not listed here. Sequences are the guide (antisense) strand, without overhang.

| Sequence | gene | seed-corrected z-score |
|---|---|---|
| `UAGGUGACUCUCGUAAGUG` | PTCHD1 | -0.9044 |
| `UCGUCUACCAGGUAGGAGC` | KCNJ9 | -0.02119 |
| `UCGAUAAUCACAACUCGGC` | ACTR10 | -0.04735 |
| `UCUUUUGUCCGCACAAUCU` | TAS2R43 | 0.03821 |
| `UCAAAUGACAUGUUAGAUG` | RRP36 | 0.1196 |
| `UACUACAUAAUACCAAAUG` | SLC35G1 | -0.222 |
| `UAGGAUCAAAGGAAUGCAG` | STRIP1 | 0.354 |
| `UUCCGGCAAAGGGUAGAUC` | ZBED1P1 | -0.9034 |
| `UAAAUAUCCACACCGUCUG` | APLP1 | 0.2494 |
| `UGGUCCAAAAGAUACAUGG` | LAS1L | -0.3613 |
| `AACAGGUCCCGAUUGAUCU` | WDR18 | -1.274 |
| `AAACGUGCAAAGCUGGAGC` | HIST2H4A | -1.66 |
| `UACGAGAUAGUGAGAGGCC` | POLRMT | -0.1986 |
| `AAAUGGAGACCCAGCACCC` | C6orf1 | -0.2214 |
| `UCGGUAGCUUCCGUACUGC` | SS18L1 | -0.9061 |
| `UCGGUCUUCAGUCUGGAUG` | FBXW4 | -1.29 |
| `UCGAUGUCCAUCACGGUCU` | DECR2 | -0.3765 |
| `UUUCCAAUUCGUAUGGAUC` | UPRT | -0.2206 |
| `UCGAUGUUGAUGUACUCGC` | IRS2 | 0.002727 |
| `AUUGACGUAACCCUUAUAC` | WDR44 | 1.801 |
| `UCUGUAUACUGUAUACUCG` | CHAF1B | -0.1937 |
| `UUCUCGAUAAUAAACCUUC` | NID1 | 0.1776 |
| `AUAUUUACAACGAAAAGCG` | NKX2-2 | 0.05108 |
| `UUCUUCAUAUUUGUCCUCC` | TPM4 | -0.8676 |
| `UAUGGAAAGUCUGCGUGGU` | MROH3P | -0.6693 |
| `UGAUUUGGGAGGAUUACCC` | CDH2 | 0.3273 |
| `UUCUGUUUCACUCCUCUGC` | PRRG1 | -0.9663 |
| `AAACUUGCAGUUGGGUUUG` | KMT5C | -1.534 |
| `UCUGAGCUAGGGAUGCUGG` | SYVN1 | 0.4856 |
| `UAGGUAAUCAGCAAUGUGC` | SLC27A2 | 0.1595 |
| `UAUUCACCCAAGCAGACUC` | SLC7A2 | -0.07202 |
| `UCUUUGAUAUAUAAGGCUG` | ZNF674 | 0.7432 |
| `UUCGGAACAUAUAGCAACC` | KMT2A | -0.4498 |
| `UAUUUCAGAGUUAGUCUCC` | CLLU1 | -0.1896 |
| `UCACCAAUCAGUACUCGAG` | ETFBKMT | 0.5804 |
| `UUCACUAUCCAUAUCACUC` | CFAP70 | 0.08952 |
| `UCUCGGAGCAUCAAGUUCU` | ITGA7 | -0.2695 |
| `UUGUUGAUCUGACCUUUCG` | SERPINB5 | -0.1456 |
| `UGGAGUGAUAGGAUGGUGG` | LOC338963 | 0.09668 |
| `GAUGAGACCGGUGAGCAGA` | LOC642515 | -0.1696 |
| `UAAGAGACACUGUCCAUCG` | ALG6 | -0.1827 |
| `UAUUCGAAAAGGAUUAGCC` | DGKE | 0.4932 |
| `AUAGUCAUCAGAGGCCUUC` | TSSK4 | 0.3997 |
| `UGCUUGAUCACGUCGAUCU` | GNAS | 1.145 |
| `UGUACAGUAAGGGCUGAGC` | ZNF569 | -0.7856 |
| `AAGAGUUCCAUCCUUCUCC` | SPATA21 | 1.829 |
| `UGUAUCUACGGAGAUCAGC` | PPY | -0.8889 |
| `UUAUGAACCUCCAAAAGGC` | ADGRB2 | -0.2161 |
| `AACUCUGUCCCUCAAGUUC` | RANBP3 | -1.062 |
| `UGUUGGAAUAUCUUGUUCC` | C11orf16 | 0.04227 |
| `UUGAUUAUUGUUACUUUGG` | KIAA1683 | 0.3647 |
| `UAGCCUUCAGAUACGAACU` | SWI5 | -0.5312 |
| `UCUUUCGUCAAAGCAAUGG` | HERC2 | -0.319 |
| `UGGUAUAUAGCAUCCAACC` | ROS1 | 1.257 |
| `AACGUGAUAAUAGUAUACG` | ATP6V0A1 | -0.2266 |
| `AAAGCUUCUAGUUAAACUG` | CARF | -0.2316 |
| `UCUUGAUUAAGUCUCUCUC` | TNIP3 | 0.5471 |
| `UAAUGAGCAAUGCAUCAGC` | CCT6A | -1.033 |
| `UUUAAUCCUACAUCAUCCC` | KIAA1468 | 0.3753 |

Repeated from the top, 4 entries:

| Sequence | gene | seed-corrected z-score |
|---|---|---|
| `UAGGUGACUCUCGUAAGUG` | PTCHD1 | -0.9044 |
| `UCGUCUACCAGGUAGGAGC` | KCNJ9 | -0.02119 |
| `UCGAUAAUCACAACUCGGC` | ACTR10 | -0.04735 |
| `UCUUUUGUCCGCACAAUCU` | TAS2R43 | 0.03821 |